From patent US20070026090A1, “Treatment and prevention of inflammatory disease and mitochondrial dysfunction with high dose selenium” (priority 2003, published 2007)
For at least one compound, name, drawing or mass did not settle the structure.

How the values were obtained:
cytochrome c mRNA = test: Cytochrome c mRNA in colon tissue (RT-PCR); assay type: in vivo, rat; conditions: 24 h after TNBS; supplemented (FIG. 7A lane 4)
mtTFA = mtTFA mRNA in colon tissue (RT-PCR); assay type: in vivo, rat
Experimental: Mitochondrial (mt) TFA, NRF1, and cytochrome c mRNA analysis: Total RNA was extracted from 50 to 100 mg tissue at a time using 1 ml of Tri Reagent® (Sigma-Aldrich Corp., St. Louis, Mo.) according to manufacturer's instructions. First strand cDNA synthesis was carried out using reverse-iTTM First Strand Synthesis from Advanced Biotechnologies (ABgene®, ABgene, Epsom, U.K.) was used according to the manufacturer's instructions. Target sequences were amplified in the PCR reaction as follows: each tube contained 37 ng of cDNA from cytochrome c, GAPDH, or 18S, 3 μl of specific primers, 12.5 μl of ready Mix and 6.5 μl water DEPC (for a total 25 μl in each tube).
The PCR for cytochrome c, NRF1 and mtTFA was run at 95° C. for 5 min, 94° C. for 30 sec, 56° C. for 2 min, 72° C. for 1 min, back to stage 2 for 22, 26, 24 cycles, respectively, then 72° C. for 10 min, and 4° C. The products of the PCR were separated on a 1% agarose gel in TAE buffer with ethidium bromide. The electrophoresis took place in a BioRad device in 1×TAE buffer at 95 V for about 50 min (maximum mA). The size of the cDNA was determined by a 100-bp marker.
Rat mtTFA: (Antisense) 5′-[…]-3′ (SEQ ID No. 15) corresponding to nucleotides 756 to 777 of rat mtMTFA (GenBank Accession No. AJ312746).
(Sense): 5′-[…]-3′ (SEQ ID No. 16). The expected PCR product was 417 bp, the actual 417 bp.

MnSOD = MnSOD transcription and expression (RTPCR, Western blot); assay type: cell-based, murine
Experimental: (§1) Cell culture: Murine J774.2 macrophages (kindly provided by Prof. Dov Zipori from the Weizmann Institute of Science) were grown in RPMI medium supplemented with 10% (w/v) fetal calf serum, penicillin (100 U/ml), streptomycin (100 μg/ml) and 1× glutamine at 37° C. in a humidified atmosphere consisting of 95% air and 5% CO2. Experiments were performed on cells at 60% confluence.
Western blots (Sp1, MnSOD, UCP2): Cells were grown in six-well tissue culture plates, treated with selenium for 72 h and activated with LPS and IFN-γ for 24 h. The wells were washed with PBS, scraped and centrifuged
(5 min. 2000 RPM), and lysed by addition of boiling hot lysis buffer (1% SDS, 1 mM sodium ortho-vanadate, 10 mM Tris pH 7.4) to the pellets. Protein content was measured (BIO RAD protein assay kit) and equalized. Sample buffer (containg SDS) was added and the samples were boiled. The samples were subjected to SDS-PAGE followed by western blot analysis. […] Immunoreactive bands were detected with ECL western blotting detection reagents (Amersham Pharmacia Biotech, Buckingammshire England) and developed on film (Fuji super RX, Dusseldorf, Germany). […]
Right (antisense) 5′[…]-3′ (SEQ ID NO: 6) corresponding to nucleotides 622 to 640 of mouse mRNA region (GenBank Accession No. NM 013671). […] Actual PCR product was approximately 570 bp, measured on 1.25% agarose gel in TAE containing ethidium bromide. […]

J774.2 macrophages = test: Mitochondrial membrane potential (CMTMRos, flow cytometry); assay type: cell-based, murine
Experimental: as §1
Evaluation of mitochondrial membrane potential (MMP) in cells—MMP was detected by flow cytometry (FACSort, Becton Dickenson and Co., San Jose, Calif. USA) using the membrane potential-sensitive fluorescent probe MitoTracker Orange (CMTMRos) (Molecular Probes, Oregon, USA). The following fluorescence setting was used: excitation at 488 nm and emission at 575 nm (FL2 channel) (24,25). Macrophage cells (1 million cells/ml) were stained with 0.1 μM CMTMRos for 30 min at 37° C. Accumulation of the dye in the mitochondria was evaluated by flow cytometer analysis as described hereinabove. Data were collected from 10,000 cells.

[1] = system: hapten (TNBS)-induced colitis; conditions: 24 h after TNBS; 16 ppm sodium selenite in drinking water, three weeks
melanoma cells = conditions: 2.5 ppm in water; cited from earlier work
[2] = system: DEN and Phenobarbital induced hepatocarcinoma; conditions: 1-4 ppm in the drinking water; cited from earlier work
[3] = system: alcohol-induced oxidative stress and lipid peroxidation in livers; conditions: 0.5 mg/kg body weight per day for 45 days; cited from earlier work
[4] = system: malignant lymphoproliferative pathologies; conditions: drinking water supplemented with 2.5 ppm; cited from earlier work

O=[Se](O)O [sodium selenite]
effect of TNBS-induced colitis on cytochrome c mRNA levels (cytochrome c mRNA): protective effect | mtTFA levels in colon tissue, colitis-induced rats (mtTFA; 24 h after TNBS, supplemented (FIG. 17 lane 4), unsupplemented nearly absolute loss): strong increase | mtTFA levels in colon tissue, healthy rats (mtTFA; healthy supplemented rats (FIG. 17 lane 2)): strong increase | MnSOD transcripts (MnSOD; 5 and 10 μM, 24 and 72 hours (FIG. 9A)): dramatic decrease | MnSOD protein (Western blot) (MnSOD; 72 hours at 10 μM (FIG. 9B)): absence of detectable MnSOD protein | mitochondrial membrane potential (MMP), resting macrophages (J774.2 macrophages; 10 μM (FIG. 16B columns b and d)): strongly inhibited | mitochondrial membrane potential (MMP), activated macrophages (J774.2 macrophages; 10 μM, LPS + INFγ activated (FIG. 16B)): strongly inhibited | necrosis in colon of hapten-induced rats (gross pathology, words) [1]: mild necrosis | tumor size and incidence of metastases (melanoma cells): inhibited | hepatocarcinoma [2]: effective reduction | alcohol-induced oxidative stress and lipid peroxidation in livers [3]: reduction | malignant lymphoproliferative pathologies [4]: reduction
